According to the supplement of paper PMC7752906:
Where a name gives a salt, the structure may show the parent alone. The list shows a part of the results. Repeats in this data set agree poorly, so a single value says little.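 About 40 Schistosoma mansoni schistosomula per well were imaged over time in bright field and compared with 0.1% DMSO wells. A drug counts as a hit if its Mahalanobis distance reaches 2.47 or more, three standard deviations above the DMSO control mean. Degeneracy is the fraction of worms scored opaque.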

Tested on: Schistosoma mansoni schistosomula
Assay: Mahalanobis distance of static-rate-frequency phenotype descriptors from DMSO controls (dimensionless); higher = stronger phenotypic change versus DMSO
Conditions: 10 µM; 72 h

| SMILES | Mahalanobis distance |
| --- | --- |
| COc1c(N2C[C@@H]3CCCN[C@@H]3C2)c(F)cc2c(=O)c(C(=O)O)cn(C3CC3)c12 [Moxifloxacin Hydrochloride] | inactive: 2.07 |
| COc1ccc(C(=O)c2ccccc2)c(O)c1 [Oxybenzone] | inactive: 2.32 |
| CC(=O)OCC(=O)[C@@]1(O)[C@H](C)C[C@H]2[C@@H]3CCC4=CC(=O)C=C[C@]4(C)[C@@]3(F)[C@@H](O)C[C@@]21C [Dexamethasone Acetate] | inactive: 1.9 |
| COc1ncnc(NS(=O)(=O)c2ccc(N)cc2)c1OC [Sulfadoxine] | inactive: 1.43 |
| CC(C)(C)NC(=O)[C@@H]1C[C@@H]2CCCC[C@@H]2CN1C[C@@H](O)[C@H](Cc1ccccc1)NC(=O)[C@H](CC(N)=O)NC(=O)c1ccc2ccccc2n1 [Saquinavir] | active: 3.61 |
| CCCCCN(CCCCC)C(=O)C(CCC(=O)O)NC(=O)c1ccc(Cl)c(Cl)c1 (configuration not stated) [Lorglumide Sodium] | inactive: 1.97 |
| Nc1nc2c(ncn2COCCO)c(=O)[nH]1 [Acyclovir] | inactive: 1.25 |
| C#C[C@]1(O)CC[C@H]2[C@@H]3CCc4cc(O)ccc4[C@H]3CC[C@@]21C [Ethinylestradiol] | active: 2.79 |
| C/C(=C(\CCOP(=O)(O)O)SC(=O)c1ccccc1)N(C=O)Cc1cnc(C)nc1N [Benfotiamine] | inactive: 1.95 |
| C=C[C@@]1(C)CC(=O)[C@]2(O)[C@@]3(C)[C@@H](O)CCC(C)(C)[C@@H]3[C@H](O)[C@H](OC(C)=O)[C@@]2(C)O1 [Colforsin] | active: 3.95 |
| CN(Cc1cnc2nc(N)nc(N)c2n1)c1ccc(C(=O)NC(CCC(=O)O)C(=O)O)cc1 (racemic) [Methotrexate(+/-)] | inactive: 1.54 |
| CCN(CC)C(=S)SSC(=S)N(CC)CC [Disulfiram] | active: 2.75 |
| O=C(CCCCCCC(=O)Nc1ccccc1)NO [Vorinostat] | active: 2.9 |
| CC[C@H]1OC(=O)C[C@@H](O)[C@H](C)[C@@H](O[C@@H]2O[C@H](C)[C@@H](O[C@H]3C[C@@](C)(O)[C@@H](O)[C@H](C)O3)[C@H](N(C)C)[C@H]2O)[C@@H](CC=O)C[C@@H](C)C(=O)/C=C/C(C)=C/[C@@H]1CO[C@@H]1O[C@H](C)[C@@H](O)[C@@H](OC)[C@H]1OC [Tylosin Tartrate] | inactive: 1.7 |
| CCN(CC)CCOc1ccc2c(c1)C(=O)c1cc(OCCN(CC)CC)ccc1-2 [Tilorone] | active: 2.93 |
| CCOC(=O)n1ccn(C)c1=S [Carbimazole] | inactive: 1.81 |
| O=C1CN(/N=C/c2ccc(-c3ccc([N+](=O)[O-])cc3)o2)C(=O)N1 [Dantrolene] | active: 2.97 |

Retrieved by compound from above, 2 records:

| SMILES | Mahalanobis distance |
| --- | --- |
| CC(=O)OCC(=O)[C@@]1(O)[C@H](C)C[C@H]2[C@@H]3CCC4=CC(=O)C=C[C@]4(C)[C@@]3(F)[C@@H](O)C[C@@]21C [Dexamethasone Acetate] | inactive: 1.9 |
| CC(C)(C)NC(=O)[C@@H]1C[C@@H]2CCCC[C@@H]2CN1C[C@@H](O)[C@H](Cc1ccccc1)NC(=O)[C@H](CC(N)=O)NC(=O)c1ccc2ccccc2n1 [Saquinavir] | active: 3.61 |
